Measurements: the supplement of paper PMC12067093, “Discovery and optimisation of a covalent ligand for TRIM25 and its application to targeted protein ubiquitination” (Chemical Science, 2025)
This is one part of the list.

Chains of the proteins cited; added tags and fusions are not shown. Lines headed by an entry give the natural chain unless they say otherwise; changes in a name come on top.
UniProt P19447: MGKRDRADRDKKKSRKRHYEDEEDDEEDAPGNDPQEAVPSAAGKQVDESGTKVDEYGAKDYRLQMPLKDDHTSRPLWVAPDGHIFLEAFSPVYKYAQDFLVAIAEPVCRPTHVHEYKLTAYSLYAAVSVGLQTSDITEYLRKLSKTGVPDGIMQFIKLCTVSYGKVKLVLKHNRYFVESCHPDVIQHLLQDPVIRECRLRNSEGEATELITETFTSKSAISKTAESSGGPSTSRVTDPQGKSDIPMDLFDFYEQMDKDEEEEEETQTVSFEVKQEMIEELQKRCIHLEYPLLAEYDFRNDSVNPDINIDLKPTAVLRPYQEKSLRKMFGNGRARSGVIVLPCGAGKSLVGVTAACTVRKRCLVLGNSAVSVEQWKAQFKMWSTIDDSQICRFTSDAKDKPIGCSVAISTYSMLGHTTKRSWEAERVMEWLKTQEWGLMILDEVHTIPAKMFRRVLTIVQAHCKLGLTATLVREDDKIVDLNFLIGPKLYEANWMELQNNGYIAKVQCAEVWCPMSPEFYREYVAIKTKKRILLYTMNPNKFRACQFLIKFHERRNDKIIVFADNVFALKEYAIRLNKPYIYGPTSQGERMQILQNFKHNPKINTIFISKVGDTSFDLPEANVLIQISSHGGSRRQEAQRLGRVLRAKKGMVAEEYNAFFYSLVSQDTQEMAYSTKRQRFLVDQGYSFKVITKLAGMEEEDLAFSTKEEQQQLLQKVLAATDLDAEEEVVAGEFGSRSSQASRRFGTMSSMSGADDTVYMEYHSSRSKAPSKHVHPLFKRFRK
UniProt Q96HE7: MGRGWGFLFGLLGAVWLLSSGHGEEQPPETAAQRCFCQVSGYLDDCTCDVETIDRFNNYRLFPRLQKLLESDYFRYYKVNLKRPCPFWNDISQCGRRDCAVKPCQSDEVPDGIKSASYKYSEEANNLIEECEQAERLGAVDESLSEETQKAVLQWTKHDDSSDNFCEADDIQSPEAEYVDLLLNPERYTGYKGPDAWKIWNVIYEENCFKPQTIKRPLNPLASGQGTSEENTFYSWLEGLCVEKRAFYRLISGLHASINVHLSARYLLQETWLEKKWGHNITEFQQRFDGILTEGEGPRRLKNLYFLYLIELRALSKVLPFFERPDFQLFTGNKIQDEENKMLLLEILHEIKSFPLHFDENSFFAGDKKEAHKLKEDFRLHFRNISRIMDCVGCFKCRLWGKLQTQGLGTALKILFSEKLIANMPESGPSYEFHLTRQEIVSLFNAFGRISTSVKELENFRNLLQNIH
UniProt Q01469, whole entry, looked up: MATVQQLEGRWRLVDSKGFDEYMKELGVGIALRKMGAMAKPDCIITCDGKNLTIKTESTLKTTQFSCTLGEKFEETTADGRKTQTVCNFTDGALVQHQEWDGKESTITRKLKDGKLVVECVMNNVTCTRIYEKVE
UniProt P16930: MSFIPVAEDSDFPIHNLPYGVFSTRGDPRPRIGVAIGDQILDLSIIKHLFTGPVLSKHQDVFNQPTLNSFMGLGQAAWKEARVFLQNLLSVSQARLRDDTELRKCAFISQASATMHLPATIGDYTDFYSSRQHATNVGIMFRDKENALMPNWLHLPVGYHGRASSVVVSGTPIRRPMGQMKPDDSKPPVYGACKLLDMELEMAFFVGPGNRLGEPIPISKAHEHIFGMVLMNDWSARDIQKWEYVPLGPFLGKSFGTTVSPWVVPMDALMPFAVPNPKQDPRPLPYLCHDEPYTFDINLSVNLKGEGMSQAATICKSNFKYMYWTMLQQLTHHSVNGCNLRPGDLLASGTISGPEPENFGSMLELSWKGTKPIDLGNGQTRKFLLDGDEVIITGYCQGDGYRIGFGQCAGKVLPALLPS
UniProt Q96EK7: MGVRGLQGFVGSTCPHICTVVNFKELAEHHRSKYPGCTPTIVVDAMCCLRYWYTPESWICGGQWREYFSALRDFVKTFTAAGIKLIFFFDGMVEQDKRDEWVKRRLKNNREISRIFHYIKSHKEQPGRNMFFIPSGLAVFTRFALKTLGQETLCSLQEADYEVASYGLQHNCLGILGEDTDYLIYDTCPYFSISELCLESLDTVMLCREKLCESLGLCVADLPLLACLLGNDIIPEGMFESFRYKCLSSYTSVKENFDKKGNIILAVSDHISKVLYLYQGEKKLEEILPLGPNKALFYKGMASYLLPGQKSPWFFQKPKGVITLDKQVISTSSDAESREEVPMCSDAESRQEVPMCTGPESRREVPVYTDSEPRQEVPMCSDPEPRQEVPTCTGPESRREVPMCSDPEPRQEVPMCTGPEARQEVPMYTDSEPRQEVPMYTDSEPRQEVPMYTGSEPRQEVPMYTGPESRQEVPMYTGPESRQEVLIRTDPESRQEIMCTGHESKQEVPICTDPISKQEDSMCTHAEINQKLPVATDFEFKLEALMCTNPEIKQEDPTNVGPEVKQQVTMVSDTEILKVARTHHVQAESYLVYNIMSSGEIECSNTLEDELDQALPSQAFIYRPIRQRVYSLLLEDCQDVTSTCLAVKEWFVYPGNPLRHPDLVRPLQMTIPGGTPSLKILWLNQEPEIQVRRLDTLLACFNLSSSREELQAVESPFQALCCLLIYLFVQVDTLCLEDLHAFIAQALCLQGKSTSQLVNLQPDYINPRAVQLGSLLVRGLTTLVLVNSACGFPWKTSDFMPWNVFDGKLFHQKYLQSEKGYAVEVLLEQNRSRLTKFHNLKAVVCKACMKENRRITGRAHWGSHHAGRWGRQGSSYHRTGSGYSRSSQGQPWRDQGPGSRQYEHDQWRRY
UniProt Q56NI9: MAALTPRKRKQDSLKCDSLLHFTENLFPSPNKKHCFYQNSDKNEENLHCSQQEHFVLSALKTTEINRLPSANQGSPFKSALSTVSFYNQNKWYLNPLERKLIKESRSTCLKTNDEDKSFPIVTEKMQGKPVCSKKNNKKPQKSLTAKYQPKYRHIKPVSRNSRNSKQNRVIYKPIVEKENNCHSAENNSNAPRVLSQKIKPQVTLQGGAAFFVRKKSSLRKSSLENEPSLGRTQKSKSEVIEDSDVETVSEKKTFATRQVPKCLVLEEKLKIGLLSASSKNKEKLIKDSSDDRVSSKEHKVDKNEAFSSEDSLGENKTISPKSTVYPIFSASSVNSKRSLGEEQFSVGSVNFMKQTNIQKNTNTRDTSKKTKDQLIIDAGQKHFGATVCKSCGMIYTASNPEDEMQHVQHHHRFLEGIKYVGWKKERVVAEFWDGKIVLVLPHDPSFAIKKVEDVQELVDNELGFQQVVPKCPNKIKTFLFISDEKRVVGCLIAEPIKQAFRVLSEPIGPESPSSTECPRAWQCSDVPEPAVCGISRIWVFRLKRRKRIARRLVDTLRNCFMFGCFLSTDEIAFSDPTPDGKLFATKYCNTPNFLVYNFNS
UniProt Q96B26, whole entry, looked up: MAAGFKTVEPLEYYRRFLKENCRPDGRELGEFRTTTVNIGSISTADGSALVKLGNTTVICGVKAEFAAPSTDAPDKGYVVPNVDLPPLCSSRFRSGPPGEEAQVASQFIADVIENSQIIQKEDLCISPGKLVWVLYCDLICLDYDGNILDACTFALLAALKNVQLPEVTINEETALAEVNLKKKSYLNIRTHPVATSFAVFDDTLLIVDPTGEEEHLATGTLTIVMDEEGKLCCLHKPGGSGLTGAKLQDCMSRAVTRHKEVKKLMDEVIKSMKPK
UniProt Q9BS26: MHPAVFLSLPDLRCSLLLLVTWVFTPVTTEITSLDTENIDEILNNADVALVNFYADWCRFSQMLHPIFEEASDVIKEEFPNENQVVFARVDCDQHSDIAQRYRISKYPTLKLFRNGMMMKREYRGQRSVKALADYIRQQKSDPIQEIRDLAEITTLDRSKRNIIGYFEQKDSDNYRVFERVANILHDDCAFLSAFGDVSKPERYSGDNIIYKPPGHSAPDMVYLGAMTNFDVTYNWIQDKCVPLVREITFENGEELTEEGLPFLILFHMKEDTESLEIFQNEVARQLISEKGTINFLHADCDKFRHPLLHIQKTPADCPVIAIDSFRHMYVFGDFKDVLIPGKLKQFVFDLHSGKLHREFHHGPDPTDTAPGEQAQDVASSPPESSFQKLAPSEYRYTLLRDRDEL
UniProt Q5RKV6, whole entry, looked up: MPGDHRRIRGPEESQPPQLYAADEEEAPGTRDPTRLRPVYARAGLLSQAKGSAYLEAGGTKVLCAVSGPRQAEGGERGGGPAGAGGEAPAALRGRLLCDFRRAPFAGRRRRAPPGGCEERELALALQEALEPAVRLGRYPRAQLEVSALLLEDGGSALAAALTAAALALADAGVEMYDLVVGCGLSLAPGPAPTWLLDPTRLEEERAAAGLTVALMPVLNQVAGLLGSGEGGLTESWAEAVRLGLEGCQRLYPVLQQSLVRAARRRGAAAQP
UniProt Q8TAG9: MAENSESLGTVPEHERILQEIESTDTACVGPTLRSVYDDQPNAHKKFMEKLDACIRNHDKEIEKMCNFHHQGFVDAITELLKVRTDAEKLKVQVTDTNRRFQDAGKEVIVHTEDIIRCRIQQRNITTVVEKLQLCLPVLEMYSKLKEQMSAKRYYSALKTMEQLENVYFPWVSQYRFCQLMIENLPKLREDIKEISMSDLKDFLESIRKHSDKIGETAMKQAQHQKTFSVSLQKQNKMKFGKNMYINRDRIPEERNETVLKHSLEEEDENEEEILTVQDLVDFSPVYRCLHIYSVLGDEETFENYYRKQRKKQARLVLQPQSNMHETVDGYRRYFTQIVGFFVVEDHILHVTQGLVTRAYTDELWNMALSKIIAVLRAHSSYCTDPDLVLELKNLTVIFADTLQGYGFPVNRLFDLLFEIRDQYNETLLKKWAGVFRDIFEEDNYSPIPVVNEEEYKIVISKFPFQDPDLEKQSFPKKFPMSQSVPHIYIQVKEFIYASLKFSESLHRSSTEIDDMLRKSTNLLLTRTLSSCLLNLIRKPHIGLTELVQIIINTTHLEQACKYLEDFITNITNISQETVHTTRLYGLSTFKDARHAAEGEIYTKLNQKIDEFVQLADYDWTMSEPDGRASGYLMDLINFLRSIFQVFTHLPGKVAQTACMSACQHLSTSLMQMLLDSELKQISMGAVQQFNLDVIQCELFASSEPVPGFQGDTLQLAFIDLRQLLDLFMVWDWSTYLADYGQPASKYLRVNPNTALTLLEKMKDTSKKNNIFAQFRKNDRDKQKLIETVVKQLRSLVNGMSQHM
UniProt Q8IV48: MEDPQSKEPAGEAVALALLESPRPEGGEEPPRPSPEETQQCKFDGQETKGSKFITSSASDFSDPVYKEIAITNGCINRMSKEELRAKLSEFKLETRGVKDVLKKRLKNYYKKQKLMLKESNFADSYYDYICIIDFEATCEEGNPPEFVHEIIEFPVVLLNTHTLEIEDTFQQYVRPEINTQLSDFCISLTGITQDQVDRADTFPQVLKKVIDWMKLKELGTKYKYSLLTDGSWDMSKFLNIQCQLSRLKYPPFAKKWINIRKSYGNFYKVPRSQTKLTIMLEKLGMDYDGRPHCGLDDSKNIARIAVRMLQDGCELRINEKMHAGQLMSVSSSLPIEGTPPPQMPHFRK
UniProt Q96DZ1: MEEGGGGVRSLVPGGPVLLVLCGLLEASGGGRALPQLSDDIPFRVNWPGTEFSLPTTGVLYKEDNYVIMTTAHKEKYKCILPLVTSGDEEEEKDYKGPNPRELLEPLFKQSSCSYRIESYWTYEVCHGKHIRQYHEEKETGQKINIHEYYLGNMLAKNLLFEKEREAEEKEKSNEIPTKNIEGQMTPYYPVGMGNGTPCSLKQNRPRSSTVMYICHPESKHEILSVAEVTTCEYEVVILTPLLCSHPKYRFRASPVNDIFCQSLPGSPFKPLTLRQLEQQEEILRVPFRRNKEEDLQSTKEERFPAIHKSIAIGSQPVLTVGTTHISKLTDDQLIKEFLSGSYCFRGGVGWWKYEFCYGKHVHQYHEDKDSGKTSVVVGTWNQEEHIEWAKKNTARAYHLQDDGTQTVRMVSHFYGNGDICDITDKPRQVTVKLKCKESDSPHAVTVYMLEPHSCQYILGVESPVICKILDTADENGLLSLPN
UniProt P10768: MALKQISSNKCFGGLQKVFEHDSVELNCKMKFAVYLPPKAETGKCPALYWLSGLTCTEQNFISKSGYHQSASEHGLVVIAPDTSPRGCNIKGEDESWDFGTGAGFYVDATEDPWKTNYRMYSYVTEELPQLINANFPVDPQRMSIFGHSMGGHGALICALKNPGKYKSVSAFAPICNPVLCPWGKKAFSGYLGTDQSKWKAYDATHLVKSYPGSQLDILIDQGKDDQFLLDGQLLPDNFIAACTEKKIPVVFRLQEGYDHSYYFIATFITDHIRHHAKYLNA
UniProt O95571: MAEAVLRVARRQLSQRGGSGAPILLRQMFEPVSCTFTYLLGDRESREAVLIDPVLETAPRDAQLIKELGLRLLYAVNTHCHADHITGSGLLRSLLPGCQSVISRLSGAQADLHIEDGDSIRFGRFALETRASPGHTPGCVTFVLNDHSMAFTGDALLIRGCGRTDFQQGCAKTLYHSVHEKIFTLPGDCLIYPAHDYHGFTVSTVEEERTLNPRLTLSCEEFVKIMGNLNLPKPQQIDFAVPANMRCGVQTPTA
UniProt P84090, whole entry, looked up: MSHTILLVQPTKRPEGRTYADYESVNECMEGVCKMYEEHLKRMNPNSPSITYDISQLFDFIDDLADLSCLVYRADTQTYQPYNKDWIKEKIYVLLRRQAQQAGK

Compound: CC1Cc2ccccc2N1C(=O)C1CCCN(C1)C(=O)CCl (mixture of isomers) [TRIM25 ligand 11 (diastereomer mixture)]
Experiment: probe-labelled cysteine peptide fold change vs DMSO (competition) (log2 fold change); higher = less target engagement (more negative = stronger competition)
Conditions: THP-1, incubation time: 4 h
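Further: competitive chemoproteomic profiling in live THP-1 cells with an iodoacetamide desthiobiotin (IA-DTB) probe, comparing probe-labelled peptide intensities in compound-treated cells against DMSO-treated controls.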

Row | Target | probe-labelled cysteine peptide fold change (10 µM) | probe-labelled cysteine peptide fold change (50 µM)
1 | ERCC3_P19447_342_SGVIVLPCGAGK (UniProt P19447) | -0.0422 | -0.00988
2 | ERO1A_Q96HE7_99+104_DCAVKPCQSDEVPDGIK (UniProt Q96HE7) | 0.0334 | -0.202
3 | EXOC1_Q9NV70_650_CISNQIR (UniProt Q9NV70) | -0.028 | 0.123
4 | EXOC5_O00471_111_VCHLGDQLEGVNTPR (UniProt O00471) | -0.0403 | 0.0212
5 | FABP5_Q01469_43_MGAMAKPDCIITCDGK (UniProt Q01469) | -0.0792 | -0.131
6 | FAH_P16930_396_KFLLDGDEVIITGYCQGDGYR (UniProt P16930) | -0.194 | -0.0982
7 | FAM120B_Q96EK7_416_QEVPMCTGPEAR (UniProt Q96EK7) | -0.0148 | -0.163
8 | EZH2_Q15910_695_FANHSVNPNCYAK (UniProt Q15910) | 0.0317 | 0.038
9 | ETFA_P13804_68_VAQDLCK (UniProt P13804) | 0.0134 | 0.0575
10 | ETV6_P41212_8_SETPAQCSIK (UniProt P41212) | 0.0671 | -0.18
11 | ETNK1_Q9HBU6_307+313_EILSNLGSPVVLCHNDLLCK (UniProt Q9HBU6) | -0.0363 | -0.124
12 | ESCO2_Q56NI9_263_CLVLEEK (UniProt Q56NI9) | -0.0573 | -0.155
13 | EXOSC8_Q96B26_251_LQDCMSR (UniProt Q96B26) | -0.298 | -0.0527
14 | ERP44_Q9BS26_189_VANILHDDCAFLSAFGDVSKPER (UniProt Q9BS26) | 0.131 | 0.193
15 | ERC1_Q8IUD2_1034_LYIGHLTTLCHDRDPLILR (UniProt Q8IUD2) | -0.118 | -0.181
16 | EXOC5_O00471_517_LSECLQK (UniProt O00471) | -0.198 | -0.101
17 | EXOSC6_Q5RKV6_117_RAPPGGCEERELALALQEALEPAVR (UniProt Q5RKV6) | -0.315 | -0.327
18 | EXOSC9_Q06265_61_VLGQVSCELVSPK (UniProt Q06265) | 0.0724 | 0.318
19 | EXOC6_Q8TAG9_28_ILQEIESTDTACVGPTLR (UniProt Q8TAG9) | -0.0571 | -0.0118
20 | FABP5_Q01469_47_KMGAMAKPDCIITCDGK (UniProt Q01469) | -0.129 | -0.18
21 | FAH_P16930_105_CAFISQASATMHLPATIGDYTDFYSSR (UniProt P16930) | -0.0585 | -0.0821

Row | Target | probe-labelled cysteine peptide fold change (10 µM) | probe-labelled cysteine peptide fold change (50 µM)
22 | ERI1_Q8IV48_314_MLQDGCELR (UniProt Q8IV48) | 0.0325 | -0.0395
23 | EVI5L_Q96CN4_342_VIPHQFDSCPDK (UniProt Q96CN4) | -0.246 | -0.197
24 | F2_P00734_129_SGIECQLWR (UniProt P00734) | 0.468 | 0.193
25 | FAM120A_Q9NZB2_1103_TCNTNPHLNALSTDSACR (UniProt Q9NZB2) | 0.0512 | -0.287
26 | EXOC3_O60645_161_LMDLECSR (UniProt O60645) | -0.0155 | -0.0768
27 | FAH_P16930_396_FLLDGDEVIITGYCQGDGYR (UniProt P16930) | 0.0287 | -0.218
28 | ERLEC1_Q96DZ1_421_MVSHFYGNGDICDITDKPR (UniProt Q96DZ1) | 0.0492 | 0.173
29 | ESCO2_Q56NI9_182_ENNCHSAENNSNAPR (UniProt Q56NI9) | 0.14 | 0.124
30 | FABP5_Q01469_120_LVVECVMNNVTCTR (UniProt Q01469) | -0.00113 | 0.0585
31 | EXOC5_O00471_542_TLNCMIGQMK (UniProt O00471) | -0.0133 | -0.012
32 | ESD_P10768_11_CFGGLQK (UniProt P10768) | -0.0267 | -0.0187
33 | EXOSC8_Q96B26_89_GYVVPNVDLPPLCSSR (UniProt Q96B26) | -0.12 | -0.16
34 | ERGIC3_Q9Y282_145_HELGKVEVTVFDPDSLDPDRCESCYGAEAEDIK (UniProt Q9Y282) | -0.245 | 0.0788
35 | ETHE1_O95571_80_LLYAVNTHCHADHITGSGLLR (UniProt O95571) | -0.0417 | -0.0437
36 | ETHE1_O95571_170_TDFQQGCAK (UniProt O95571) | -0.0879 | -0.135
37 | ERLEC1_Q96DZ1_126_IESYWTYEVCHGK (UniProt Q96DZ1) | 0.206 | 0.197
38 | FAM102B_Q5T8I3_201_SASVPDELGACGHSR (UniProt Q5T8I3) | 0.157 | -0.0565
39 | FAM118A_Q9NWS6_113_TGDAKPSFFQDCLMEVFDDLEQHIR (UniProt Q9NWS6) | 0.104 | -0.177
40 | FAM111A_Q96PZ2_181_ASTECVK (UniProt Q96PZ2) | -0.186 | -0.00255
41 | EXOC5_O00471_236_QCQEGAYLR (UniProt O00471) | 0.0906 | 0.208
42 | ERO1B_Q86YB8_207_VWNSIYEENCFKPR (UniProt Q86YB8) | 3.02e-05 | 0.108

Full records from above. Order of values: probe-labelled cysteine peptide fold change (10 µM)	probe-labelled cysteine peptide fold change (50 µM)
ERLEC1_Q96DZ1_421_MVSHFYGNGDICDITDKPR (UniProt Q96DZ1) in the list: 0.0492	0.173
EXOSC8_Q96B26_89_GYVVPNVDLPPLCSSR (UniProt Q96B26) in the list: -0.12	-0.16
ERP44_Q9BS26_189_VANILHDDCAFLSAFGDVSKPER (UniProt Q9BS26) in the list: 0.131	0.193
EXOC5_O00471_517_LSECLQK (UniProt O00471) in the list: -0.198	-0.101

The listing continues:

Row | Target | probe-labelled cysteine peptide fold change (10 µM) | probe-labelled cysteine peptide fold change (50 µM)
43 | FAM120B_Q96EK7_392_QEVPTCTGPESR (UniProt Q96EK7) | -0.209 | -0.192
44 | EXOC1_Q9NV70_304+314_GIEACTNAADALLQCMNVALRPGHDLLLAVK (UniProt Q9NV70) | 0.235 | 0.018
45 | EXOSC7_Q15024_85_PNEGYLEFFVDCSASATPEFEGR (UniProt Q15024) | 0.527 | 0.0488
46 | ERGIC1_Q969X5_115_IPLNNGAGCR (UniProt Q969X5) | 0.0435 | 0.0866
47 | EXOSC3_Q9NQT5_257_TIQQTLILANILEACEHMTSDQRK (UniProt Q9NQT5) | 0.147 | 0.000894
48 | FABP5_Q01469_43+47_MGAMAKPDCIITCDGK (UniProt Q01469) | -0.0476 | -0.166
49 | EXOC7_Q9UPT5-2_285_RPGRDDMLDVETDAYIHCVSAFVK (UniProt Q9UPT5) | -0.115 | 0.0261
50 | EZH2_Q15910_324_NTETALDNKPCGPQCYQHLEGAK (UniProt Q15910) | -0.0466 | 0.0993
51 | EXOC8_Q8IYI6_211_VHGFLMNDCLLVATWLPQR (UniProt Q8IYI6) | 0.0221 | -0.00217
52 | ESCO2_Q56NI9_132_MQGKPVCSK (UniProt Q56NI9) | -0.148 | -0.284
53 | FAF2_Q96CS3_211_MLFWACSTNKPEGYR (UniProt Q96CS3) | -0.143 | -0.033
54 | EXOSC4_Q9NPD3_97_SCEMGLQLR (UniProt Q9NPD3) | -0.00406 | -0.0307
55 | F2_P00734_564_RGDACEGDSGGPFVMK (UniProt P00734) | 0.606 | 0.325
56 | ERH_P84090_33_TYADYESVNECMEGVCK (UniProt P84090) | -0.365 | -0.0983
57 | FAM111B_Q6SJ93_590_IDGCTVIPLNER (UniProt Q6SJ93) | -0.0745 | -0.147
58 | ERCC6L_Q2NKX8_411_LCDHPR (UniProt Q2NKX8) | 0.0342 | 0.0844
59 | FABP5_Q01469_47_MGAMAKPDCIITCDGK (UniProt Q01469) | -0.0819 | -0.168
60 | EXOSC7_Q15024_199_LSVENVPCIVTLCK (UniProt Q15024) | 0.0305 | 0.0891
61 | ERO1A_Q96HE7_104_DCAVKPCQSDEVPDGIK (UniProt Q96HE7) | -0.0614 | -0.103
62 | ETFDH_Q16134_589_LQINAQNCVHCK (UniProt Q16134) | 0.13 | 0.0962
63 | EXOSC8_Q96B26_234_LCCLHKPGGSGLTGAK (UniProt Q96B26) | -0.103 | -0.157

Row | Target | probe-labelled cysteine peptide fold change (10 µM) | probe-labelled cysteine peptide fold change (50 µM)
64 | ERO1A_Q96HE7_208_IWNVIYEENCFKPQTIK (UniProt Q96HE7) | -0.0676 | 0.0513
65 | ERH_P84090_28_TYADYESVNECMEGVCK (UniProt P84090) | -0.395 | -0.212
66 | ERGIC3_Q9Y282_145_VEVTVFDPDSLDPDRCESCYGAEAEDIK (UniProt Q9Y282) | 0.248 | 0.359
67 | EXOSC9_Q06265_232_HREICTIQSSGGIMLLK (UniProt Q06265) | -0.164 | -0.0657
68 | ETV6_P41212_157_ILFSPFFHPGNSIHTQPEVILHQNHEEDNCVQR (UniProt P41212) | 0.0671 | 0.132
69 | ESD_P10768_45+56_CPALYWLSGLTCTEQNFISK (UniProt P10768) | 0.14 | 0.000345
70 | ETHE1_O95571_34_QMFEPVSCTFTYLLGDRESR (UniProt O95571) | -0.517 | -0.214
71 | EXOC2_Q96KP1_586_CVMATLQHTAEEIKR (UniProt Q96KP1) | 0.162 | 0.257
72 | EXOSC2_Q13868_259_MMLYDTSILYCYEASLPHQIK (UniProt Q13868) | 0.00869 | 0.0694
73 | ERCC2_P18074_491_VCLCPMIIGR (UniProt P18074) | -0.29 | -0.0667
74 | FAF1_Q9UNN5_120_NVDVVLEDTCTVGEIK (UniProt Q9UNN5) | 0.0123 | 0.0932
75 | EXOC6_Q8TAG9_135_LQLCLPVLEMYSK (UniProt Q8TAG9) | 0.184 | 0.103
76 | ERP44_Q9BS26_301_GTINFLHADCDK (UniProt Q9BS26) | 0.0266 | 0.00902
77 | ERCC2_P18074_155_AQYQHDTSLPHCR (UniProt P18074) | 0.132 | -0.0603
78 | FAM120B_Q96EK7_18_GLQGFVGSTCPHICTVVNFK (UniProt Q96EK7) | -0.00242 | 0.184
79 | FABP5_Q01469_43_KMGAMAKPDCIITCDGK (UniProt Q01469) | -0.257 | -0.212
80 | EXOSC9_Q06265_9_ETPLSNCER (UniProt Q06265) | -0.104 | -0.0793
81 | ERI1_Q8IV48_294_LGMDYDGRPHCGLDDSK (UniProt Q8IV48) | 0.03 | -0.0637
82 | ERCC3_P19447_390_MWSTIDDSQICR (UniProt P19447) | 0.0351 | 0.0856
83 | EXOSC6_Q5RKV6_248_LGLEGCQR (UniProt Q5RKV6) | -0.00819 | 0.0459
84 | EZR_P15311_284_ILQLCMGNHELYMR (UniProt P15311) | -0.0383 | -0.0492
